Laboratory results from patent US20140113831A1.
No constants are given. Whether binding was seen depends on the method and setting. Some binding calls cover weakened binding; strength is not graded here.

These binders were tested against human PDGFRb (human) (UniProt P09619) (assay: dsDNA display selection of the HCDR3 shuffled VH library; clone sequenced from the selected pool).

| Binder | binding |
| --- | --- |
| VH domain clone F3. (SEQ ID NO: 48) (protein) VH: QVQLVQSGAEVKKPGASVKVSCKASGYTFISHGMSWVRQAPGQGLEWMGWISADNGNTNYAQKFQERVTITRDMSTSTAYMELSSLRSEDTAVYYCATHGGDRSYWGQGTLVTVSS | binds |
| VH domain clone A1. (SEQ ID NO: 39) (protein) VH: QVQLVQSGPEVKKPGTSVKVSCKASGFTFTSSAVQWVRQARGQRLEWIGWIVVGSGNTNYAQKFQERVTITRDMSTSTAYMELSSLRSEDTAVYYCATHGGDRSYWGQGTLVTVSS | binds |
| VH domain clone G04. (SEQ ID NO: 41) (protein) VH: QVQLVQSGAEVKKPGASVKVSCKASGFTFTSYAISWVRQARGQRLEWIGWIVVGSGNTNYAQKFQERVTITRDMSTSTAYMELSSLRSEDTAVYYCATHGGDRSYWGQGTLVTVSS | binds |
| VH domain clone B12. (SEQ ID NO: 24) (protein) VH: QMQLVQSGAEVKKPGSSVRVSCKASGGTFSRHAISWVRQAPGQGLEWIGGILPILKTPNYAQRFQGRVTINADESTSTVYMEMSSLRSENTAVYYCATHGGDRSYWGQGTLVTVSS | binds |
| VH domain clone E05. (SEQ ID NO: 27) (protein) VH: QVQLVQSGPKVKKPGSSVRVSCKASGGTFSRHAISWVRQAPGQGLEWIGGILPILKTPNYAQRFQGRVTINADESTSTVYMEMSSLRSEDTAVYYCATHGGDRSYWGQGTLVTVSS | binds |
| VH domain clone H2. (SEQ ID NO: 33) (protein) VH: QMQLVQSGAEVKNPGASVKVSCKASGYPFSAYYIQWVRQAPGQGLEWMGWLNPNSGDTHSAQKFQGRVTMTRDTSISTAYMELSGLTSDDTAVYYCATHGGDRSYWGQGTLVTVSS | binds |
| VH domain clone F11. (SEQ ID NO: 34) (protein) VH: QMQLVQSGAEVKNPGASVKVSCKASGYPFSAYYIQWVRQAPGQGLEWMGWLNPNSGDTHSAQKFQGRVTMTRDTSISTAYMELSGPTSDDTAVYYCATHGGDRSYWGQGTLVTVSS | binds |
| VH domain clone E6. (SEQ ID NO: 38) (protein) VH: QMQLVQSGAEVKRPGASVKVPCKASGYTFTDYYLHWVRQAPGQGLKWMGWINPNSGGTNYAQKFQGRVTMTRDTSISTAYMELSRLRSEDTAVYYCATHGGDRSYWGQGTLVTVSS | binds |
| VH domain clone A3. (SEQ ID NO: 29) (protein) VH: QVQLVQSGAEVKKPGASVRVSCKASGYTFSDYYIQWVRQAPGQGLEWMGWINPNSGGTYFAQKFQGRVTMTRDTSISTAYMELSSLTSDDTAVYYCATHGGDRGYWGQGTLVTVSS | binds |
| VH domain clone F10. (SEQ ID NO: 31) (protein) VH: QMQLVQSGAEVKKPGASVKVSCKASGYTFTDYYIQWVRQAPGQGLEWMGWINPDSGGTYFAQKFQGRVAMTRDTSINTAYMELSSLRSDDTAVYYCATHGGDRSYWGQGTLVTVSS | binds |
| VH domain clone H3. (SEQ ID NO: 44) (protein) VH: QVQLVQSGAEVKKPGASVKVSCRASGYTFTNSFMQWVRQVPGQRLEWVGLSNPSGDYTVYAPKFQGRVTMTTDTATSTFYMELFSLRSDDTAVYYCATHGGDRSYWGQGTLVTVSS | binds |
| VH domain clone B4. (SEQ ID NO: 45) (protein) VH: QVQLVQSGAEVKKPGASVKVSCRASGYTFTNSFMQWVRQVPGQRLEWVGLSNPSGDYTVYAPKLQGRVTMTTDTATGTFYMELFSLRSDDTAVYYCATHGGDRSYWGQGTLVTVSS | binds |

The remaining lines, values ahead:

| binding | Binder |
| --- | --- |
| binds | VH domain clone E2. (SEQ ID NO: 28) (protein) VH: QMQLVQSGAEVKKPGASVKISCKTSGYTFTDYYIQWVRQAPGQGLEWVGWINPNSGNTGYAQKFQGRVTMTRDTSISTAYMELSSLRSEDTAVYYCATHGGDYSYWGQGTLVTVSS |
| binds | VH domain clone B2. (SEQ ID NO: 42) (protein) VH: QVQLVQSGAEVKKPGASVKVSCKASGYSFTNYQVQWVRQAPGQGLEWLGVINTGVGSTNYAQKFQGRVTMTRDTATSTVYMELSSLRSEDTAVYYCATHGGDRSYWGQGTLVTVSS |
| binds | VH domain clone A7. (SEQ ID NO: 43) (protein) VH: QVQLVQSGAEVKKPGASVKVSCKASGYSFTNYPVQWVRQAPGQGLEWLGVINTGVGSTNYAQKFQGRVTMTRDTATSIVYMELSSLRSEDTAVYYCATHGGDRSYWGQGTLVTVSS |
| binds | VH domain clone E11. (SEQ ID NO: 36) (protein) VH: QVQLVQSGAEVEKPGASVKVSCKASGYTFTDYYIHWVRQAPGQGLEWMRGIIPIFGTANYAQKFQGRVTITADESTSTAYMELSSLRSEDTAVYYCATHGGDRSYWGQGTLVTVSS |
| binds | VH domain clone H7. (SEQ ID NO: 40) (protein) VH: QVQLVQSGPEVKKPGTSVKVSCKASGFTFTSSAMQWVRQARGQRLEWIGWIVVGSGNTNYAQKFQERVTITRDMSTSTAYMELSSLRSEDTAVYYCATHGGDRSYWGQGTLVTVSS |
| binds | VH domain clone C4. (SEQ ID NO: 23) (protein) VH: QMQLVQSGAEVKKPGSSVRVSCKASGGTFSRHAISWVRQAPGQGLEWIGGILPILKTPNYAQRFQGRVTINADESTSTVYMEMSGLRSEDTAVYYCATHGGDRSYWGQGTLVTVSS |
| binds | VH domain clone C3. (SEQ ID NO: 30) (protein) VH: QMQLVQSGAEVKKPGASVKVSCKASGYTFTDYYIQWVRQAPGQGLEWIGGILPILKTPNYAQRFQGRVTINADESTSTVYMEMSSLRSEDTAVYYCATHGGDRSYWGQGTLVTVSS |
| binds | VH domain clone C05. (SEQ ID NO: 26) (protein) VH: QMQLVQSGAEVKKPGSSVRVSCKASGGTFSRHAISWVRQAPGQGLEWIGGVLPILKTPNYAQRFQGRVTINADESTSTVYMELSSLRSEDTAVYYCATHGGDRSYWGQGTLVTVSS |
| binds | VH domain clone D07. (SEQ ID NO: 25) (protein) VH: QMQLVQSGAEVKKPGSSVRVSCKASGGTFSRHAISWVRQAPGQGLEWIGGILPILKTPNYAQRFQGRVTINADESTSTVYMEMSSLRSDDTAVYYCATHGGDRSYWGQGTLVTVSS |
| binds | VH domain clone H1. (SEQ ID NO: 37) (protein) VH: EVQLLESGAEVKQPGASVKVSCKTSGYTFTDYHLHWVRQAPGQGLEWMGWINPNSGGTNSAPKFQGRVTMTRDTSISTAYMELSGLTSDDTAVYYCATHGGDRSYWGQGTLVTVSS |
| binds | VH domain clone B1. (SEQ ID NO: 35) (protein) VH: QMQLVQSGAEVRKPGASVKVSCKASGYSFSDYYIHWVRQAPGQGLEWIGWINPNNGNTTYAQKFQGRVTMIRDTSISTAYMELSELRSDDTAVYYCATHGGDRSYWGQGTLVTVSS |
| binds | VH domain clone C12. (SEQ ID NO: 32) (protein) VH: QVQLVQSGAEVKKPGASVKVSCKASGYTFTDYYIQWVRQAPGEGLEWMGWMNPDSGGTIYAQKFQGRVTMTRDTSISTAYMELSRLRPDDTAVYYCATHGGDRSYWGQGTLVTVSS |
| binds | VH domain clone H05. (SEQ ID NO: 46) (protein) VH: EVQLVQSGGGVVQPGGSLRLSCAASGFTFRSYGMHWVRQAPGKGLEWVAFILFDGNNKYYADSVKGRFTISSDNSKNTLYLQMNSLRAEDTAVYYCATHGGDRSYWGQGTLVTVSS |
